This note sets out measurements from publication PMC3439491.

For some of these results: No signal at the amounts used counts as a negative. For some of these results: At least one verdict rests on a figure or table, not on a statement of the authors. For some of these results: The comparison behind a weaker result is the experiment's own reference, which may not be listed here. For some of these results: Construct, isoform or probe ends are uncertain for at least one entry. For some of these results: Results from cells or extracts need not show a direct contact.

One series concerns the target MA-MADS5 full length (A) (UniProt E9NW24). Description: competition with a labelled probe. The settings on record: EMSA with 2 ug recombinant protein or 15 ug nuclear extract, buffer by reference to earlier work, circularization pre-incubation: 60 mM KCl, 8 mM HEPES pH 7.9, recombinant protein, residues 1-243, protein details: 6xHis (pQE30). (A gel shift assay detects complexes by their altered migration in electrophoresis.)

Series [1] deals with MA-MADS5 in banana nuclear extract (UniProt E9NW24). Description: EMSA supershift and immunoblot. Particulars: fruit pulp extract (text climacteric, legend postclimacteric); EMSA with 2 ug recombinant protein or 15 ug nuclear extract, buffer by reference to earlier work; circularization pre-incubation: 60 mM KCl, 8 mM HEPES pH 7.9; protein in an extract; label: 32P 5' end.
Series [2] shares this target. Description: competition with a labelled probe. The settings on record: 100-fold excess vs N1; EMSA with 2 ug recombinant protein or 15 ug nuclear extract, buffer by reference to earlier work; circularization pre-incubation: 60 mM KCl, 8 mM HEPES pH 7.9; protein in an extract.
The next series addresses MA-MADS5 B (MADS) (UniProt E9NW24). Description: EMSA. The settings on record: EMSA with 2 ug recombinant protein or 15 ug nuclear extract, buffer by reference to earlier work; circularization pre-incubation: 60 mM KCl, 8 mM HEPES pH 7.9; recombinant protein; residues 1-60; protein details: 6xHis (pQE30); label: 32P.
In series [3] the target is MA-MADS5 in banana nuclear extract (UniProt E9NW24). Description: EMSA + MS identification; South-Western. Particulars: flower and climacteric pulp extract; EMSA with 2 ug recombinant protein or 15 ug nuclear extract, buffer by reference to earlier work; circularization pre-incubation: 60 mM KCl, 8 mM HEPES pH 7.9; protein in an extract; label: 32P.
Series [4] shares this target. The series can be described thus: EMSA. The settings on record: also fails to compete at 100-fold excess (pulp); EMSA with 2 ug recombinant protein or 15 ug nuclear extract, buffer by reference to earlier work; circularization pre-incubation: 60 mM KCl, 8 mM HEPES pH 7.9; protein in an extract; label: 32P or unlabeled.

Consider “ACACCCCAGCAATTTGATCTTC (double strand) [m2 (MA-ACS1)]”, for which the binding result in the series with MA-MADS5 full length (A) (100-fold excess vs N5) is recorded as “no binding”.

Consider “GAGGTTGGTGATTTGTCACTAC (double strand) [m5 (MA-ACO1)]”, for which, in the series with MA-MADS5 full length (A) (100-fold excess vs N8), the binding result is “no binding”.

Consider “TTGGATTCTTATATGTCACGAA (double strand) [CArG motif 1 (MA-SPS)]”, for which the binding result in series [1] is recorded as “binds”.

Regarding “AAGCACGCATATCGGTGCTGCA (double strand) [m7 (MA-EXP)]”, in the series with MA-MADS5 full length (A) (100-fold excess vs N10), the binding result is listed as “no binding”.

On to “CGCGGATAAGCGTACGCGGATAAGCGTA (double strand) [GATA box]”, for which the binding result in series [2] is recorded as “no binding”.

With “TTGGATTCTTGCATGTCACGAA (double strand) [m1 (MA-SPS)]”, in the series with MA-MADS5 full length (A) (100-fold excess vs N4), the binding result is recorded as “no binding”.

For the sequence “ACTGAAGCTTTCCATTAATGGGAATGACGCACAATCCCAC (double strand) [AGAMOUS element 1 CArG-box (A probe)]”, the binding result is on record as “binds more weakly” with MA-MADS5 B (MADS) and “binds” in series [3].

For the sequence “ACTGAAGCTTTCCATGCATGGGAATGACGCACAATCCCAC (double strand) [AGAMOUS element m1 (Am probe, CArGm)]”, the binding result in series [4] is “no binding”.

Consider “CTGGTATCTGTTCATGAAATCT (double strand) [m8 (MA-LEC)]”, for which the binding result in the series with MA-MADS5 full length (A) (100-fold excess vs N11) is “no binding”.
